# Counter-ions that a name gives are not always drawn. Among all 2,100 compounds or so, about 180 (8.6%) showed an effect of 50% or more. The list shows a part of the results.
# System: MOLM1 and UCSD/AML1 (averaged)
# Assay: cell viability relative to DMSO control (POC); higher = less growth inhibition
# Conditions: 1 µM; 72 h
# Procedure: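 Primary viability screen in the 3q26 EVI1-high AML cell lines MOLM1 and UCSD/AML1 (1.5e3 cells/well, 384-well), compounds at 1 uM for 72 h. ATP CellTiter-Glo read-out given as percent of viable cells over DMSO control (POC), averaged over duplicates. DMSO was the negative control and 5 uM etoposide the positive control. This mapping covers the MicroSource Spectrum and Selleck anticancer libraries (drug names).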
row,SMILES,cell viability [%]
1,NC[C@H]1O[C@H](O[C@H]2[C@H](O[C@@H]3O[C@H](CO)[C@@H](O)[C@H]3O)[C@@H](O)[C@H](N)C[C@@H]2N)[C@H](N)[C@@H](O)[C@@H]1O,96.8
2,NC(=O)N/N=C/c1ccc([N+](=O)[O-])o1,98.5
3,CCCC(=O)Nc1ncnc2c1ncn2[C@@H]1O[C@@H]2COP(=O)(O)O[C@H]2[C@H]1OC(=O)CCC,95.9
4,CC(=O)N[C@@H](CCC(=O)O)C(=O)O,103
5,O=C(CNC(=O)c1ccc(Cl)cc1)NO,107
6,CC(=O)Oc1cccc(O)c1,92.1
7,C/C1=C\CCC(=O)C2CC(C)(C)C2CC1 (stereo not given),93.3
8,CCN1CCN(C(=O)N[C@@H](C(=O)N[C@@H]2C(=O)N3[C@@H]2SC(C)(C)[C@@H]3C(=O)O)c2ccccc2)C(=O)C1=O,103
9,CN(NC(=O)CC(=O)NN(C)C(=S)c1ccccc1)C(=S)c1ccccc1 [Elesclomol],1.23
10,O=C(NCO)c1cccnc1,106
11,CO[C@@H]1[C@@H](OC(N)=O)[C@@H](O)[C@H](Oc2ccc3c(O)c(NC(=O)c4ccc(O)c(CC=C(C)C)c4)c(=O)oc3c2C)OC1(C)C,95.7
12,CC1(C)OC(=O)NC1=O,114
13,COc1ccc(NS(=O)(=O)c2ccc(N)cc2)nn1,100
14,Nc1ccc(C(=O)NCC(=O)O)cc1,94.9
15,CCC[C@H](N[C@@H](C)C(=O)N1[C@H](C(=O)O)C[C@@H]2CCCC[C@@H]21)C(=O)OCC,87.8
16,Cn1nnnc1SCC1=C(C(=O)O)N2C(=O)[C@@H](NC(=O)[C@H](O)c3ccccc3)[C@H]2SC1,106
17,OCCN1CCN(CCCN2c3ccccc3Sc3ccc(Cl)cc32)CC1,85.8
18,CN(C)CCc1c[nH]c2ccc(Cn3cncn3)cc12,92.9
19,OC[C@H]1O[C@@H](Oc2ccc(O)cc2)[C@H](O)[C@@H](O)[C@@H]1O,109
20,Nc1ccc(S(=O)(=O)c2ccc(N)cc2)cc1,99.5
21,COc1cc(/C=C/C(=O)O)cc(OC)c1OC,118
22,C=C1C[C@H]2[C@@H]3C=C(C)C4=CC(=O)CC[C@]4(C)[C@H]3CC[C@]2(C)[C@@]1(OC(C)=O)C(C)=O,78.5
23,COC(=O)C1=CO[C@@H](O[C@@H]2O[C@H](CO)[C@@H](O)[C@H](O)[C@H]2O)[C@@H]2[C@@H](C)[C@@H](O)C[C@H]12,94.9

row,SMILES,cell viability [%]
1,N[C@H]1C(O)O[C@H](CO)[C@@H](O)[C@@H]1O (stereo not given in full),102
2,COC1=CC(c2cc3ccccc3[nH]2)=N/C1=C\c1[nH]c(C)cc1C [Obatoclax mesylate (GX15-070)],18.7
3,"NC(C(=O)O)C(O)C(=O)O (stereo not drawn) [d,l-threo-3-HYDROXYASPARTIC ACID]",129
4,O=C(Nc1ccc(OC(F)(F)F)cc1)c1sccc1NCc1ccnc2ccccc12,64.7
5,COc1ccc(CN(CCN(C)C)c2ccccn2)cc1,103
6,CCCNC(C)C(=O)Nc1ccccc1C (stereo not given),100
7,CC(COc1ccccc1)N(CCCl)Cc1ccccc1 (stereo not given),91.4
8,CC(=O)c1ccc(S(=O)(=O)NC(=O)NC2CCCCC2)cc1,104
9,CC(C)(C)Cn1c(N)nc2ccc(-c3[nH]c(C(C)(C)C)nc3-c3ccc(F)cc3)nc21,91
10,OC[C@H]1O[C@H]([S-])[C@H](O)[C@@H](O)[C@@H]1O.[Au+],99.2
11,Cn1c(=O)c2nc[nH]c2n(C)c1=O,116
12,COc1cc2cc3c4cc(OC)c(OC)cc4cc[n+]3c(C)c2cc1OC,99.6
13,C=C1c2cccc(O)c2C(=O)C2=C(O)[C@]3(O)C(=O)C(C(N)=O)=C(O)[C@@H](N(C)C)[C@@H]3[C@@H](O)[C@H]12,100
14,c1ccc(C2CN3CCSC3=N2)cc1 (stereo not given),113
15,Cc1scc2c1N(C(=O)CN1CCN(C)CC1)c1ccccc1NC2=O,112
16,C[C@@]12CCc3occc3[C@H]1CC[C@@]13C[C@@H](CC[C@H]12)[C@@](O)(CO)C3,89.6
17,CO/N=C(\C(=O)N[C@@H]1C(=O)N2C(C(=O)O)=C(CSc3nc(=O)c(O)nn3C)CS[C@H]12)c1csc(N)n1,102
18,O=C(O)CS,116
19,NC1(C(=O)O)CCCC1,93.7
20,NCCCC[C@H](N[C@@H](CCc1ccccc1)C(=O)O)C(=O)N1CCC[C@H]1C(=O)O,100
21,Cc1ccc(C(=O)Nc2ccc(CN3CCN(C)CC3)c(C(F)(F)F)c2)cc1C#Cc1cnc2cccnn12,4.31
22,CC(C)(C)NC[C@H](O)COc1nsnc1N1CCOCC1,122
23,C[C@]12CCC(=O)C=C1CC[C@@H]1[C@@H]2[C@@H](O)C[C@@]2(C)[C@H]1CC[C@]2(O)C(=O)COC(=O)CCC(=O)O,85.4

# An excerpt of these results, tab-delimited:
row	SMILES	cell viability [%]
11	Cn1c(=O)c2nc[nH]c2n(C)c1=O	116
12	COc1cc2cc3c4cc(OC)c(OC)cc4cc[n+]3c(C)c2cc1OC	99.6
13	C=C1c2cccc(O)c2C(=O)C2=C(O)[C@]3(O)C(=O)C(C(N)=O)=C(O)[C@@H](N(C)C)[C@@H]3[C@@H](O)[C@H]12	100
14	c1ccc(C2CN3CCSC3=N2)cc1 (stereo not given)	113
15	Cc1scc2c1N(C(=O)CN1CCN(C)CC1)c1ccccc1NC2=O	112

# The list continues:

row,SMILES,cell viability [%]
1,CCOC(=O)[C@H](CCc1ccccc1)N[C@H]1CCc2ccccc2N(CC(=O)O)C1=O,58.5
2,O=C(Nc1c[nH]nc1-c1nc2ccc(CN3CCOCC3)cc2[nH]1)NC1CC1,17.5
3,COc1cc(-c2coc3cc(O)c(OC)c(O)c3c2=O)cc(O)c1OC,90.5
4,CCOC(=O)OC(C)OC(=O)[C@@H]1N2C(=O)[C@@H](NC(=O)[C@H](N)c3ccccc3)[C@H]2SC1(C)C (stereo not given in full),93.4
5,COc1c2ccoc2nc2c(OC)c(OCC(O)C(C)(C)O)ccc12 (stereo not given),90.2
6,CC[C@H]1OC(=O)[C@H](C)[C@@H](O[C@H]2C[C@@](C)(OC)[C@@H](O)[C@H](C)O2)[C@H](C)[C@@H](O[C@@H]2O[C@H](C)C[C@H](N(C)C)[C@H]2O)[C@](C)(O)C[C@@H](C)/C(=N\OCOCCOC)[C@H](C)[C@@H](O)[C@]1(C)O,97.8
7,CC(=O)N[C@@H](CC(C)C)C(=O)O,93.7
8,Nc1nc(=O)c2nc(CNc3ccc(C(=O)N[C@@H](CCC(=O)O)C(=O)O)cc3)cnc2[nH]1,113
9,C=CC[S+]([O-])C[C@H](N)C(=O)O (mixture of isomers),89.6
10,O=C([O-])[C@H]1/C(=C/CO)O[C@@H]2CC(=O)N21.[Li+],90.4
11,CC(C)CC(=O)Nc1n[nH]c2c1CN(C(=O)C1CCN(C)CC1)C2(C)C,49.4
12,COc1ccc(-c2cc(=O)c3c(O)cc(O)cc3o2)cc1O,83
13,Nc1nc(Cl)nc2c1ncn2[C@@H]1O[C@H](CO)[C@@H](O)[C@@H]1F [Clofarabine],6.72
14,COc1cc2ccc(=O)oc2c(OC)c1OC,110
15,O=C1CN2Cc3c(ccc(Cl)c3Cl)N=C2N1,97.9
16,C#CCCCCCCCCCCCC(O)CC(O)CO (stereo not given),55.1
17,CC(C)NCC(O)COc1ccc(COCCOC(C)C)cc1 (stereo not given),84.9
18,CN(C)Cc1c(C(=O)NCCOc2ccc(C(=O)NO)cc2)oc2ccccc12,1.01
19,O=c1cc(-c2ccc(O)cc2)oc2cc(O)cc(O)c12,98.6
20,O=C(Cn1ccnc1[N+](=O)[O-])NCCO,94.5
21,CC(=O)OCC(COC(C)=O)OC(C)=O,102
22,CN(C)CCN(Cc1cccs1)c1ccccn1,96.2
23,COc1ccc2c(c1)OCc1c-2oc2cc(OC)ccc12,99

# 2 entries picked at random from the list so far:
row,SMILES,cell viability [%]
4,CCOC(=O)OC(C)OC(=O)[C@@H]1N2C(=O)[C@@H](NC(=O)[C@H](N)c3ccccc3)[C@H]2SC1(C)C (stereo not given in full),93.4
19,O=c1cc(-c2ccc(O)cc2)oc2cc(O)cc(O)c12,98.6

# (further entries)

row,SMILES,cell viability [%]
1,COc1ccc([C@H]2COc3c(ccc(O)c3OC)C2)c(OC)c1O,116
2,NC(=O)N1c2ccccc2C=Cc2ccccc21,109
3,C[C@]12CC[C@@H]3c4ccc(O)cc4CC[C@H]3[C@@H]1CCC2=O [Estrone],79
4,C[C@]12CC[C@@H]3c4ccc(O)cc4CC[C@H]3[C@@H]1CCC2=O,104
5,CCCCCCCCc1ccc(CCC(N)(CO)CO)cc1 [Fingolimod (FTY720)],76.7
6,CC(=O)OCC1=C(C(=O)O)N2C(=O)[C@@H](NC(=O)CSc3ccncc3)[C@H]2SC1,101
7,CN(C)[C@@H]1C(O)=C(C(N)=O)C(=O)[C@@]2(O)C(O)=C3C(=O)c4c(O)ccc(Cl)c4[C@@](C)(O)[C@H]3C[C@@H]12,106
8,O=C1OC2(c3ccc(O)cc3Oc3cc(O)ccc32)c2ccccc21,96.8
9,Cc1cccc(CN2CCN(C(c3ccccc3)c3ccc(Cl)cc3)CC2)c1 (stereo not given),101
10,COc1cnc(NS(=O)(=O)c2ccc(N)cc2)nc1,100
11,O=C(O)CCC(=O)Nc1ccc(S(=O)(=O)Nc2nccs2)cc1,113
12,O=NN(CCCl)C(=O)NC1CCCCC1 [Lomustine (CeeNU)],94.3
13,CCOC(=O)C1=C[C@]2(CC)CCCN3CCc4c(n1c1ccccc41)[C@@H]32 [Vinpocetine (Cavinton)],108
14,CC(=O)OCC(=O)[C@@]1(O)CC[C@H]2[C@@H]3C[C@H](C)C4=CC(=O)C=C[C@]4(C)[C@H]3[C@@H](O)C[C@@]21C [6alpha-METHYLPREDNISOLONE ACETATE],65
15,"COC(=O)C[C@H]1C(C)(C)[C@@H](O)[C@@H]2CC3=C4CC(O)O[C@@H](c5ccoc5)[C@]4(C)CCC3[C@@]1(C)C2=O (stereo partly drawn) [3,16-DIDEOXYMEXICANOLIDE-3beta-DIOL]",86.1
16,COc1cc(Nc2ncc(F)c(Nc3ccc4c(n3)N(COP(=O)(O)O)C(=O)C(C)(C)O4)n2)cc(OC)c1OC,58.3
17,COc1ccc(-c2cc(=O)c3c(O)cc(O[C@@H]4O[C@H](CO[C@@H]5O[C@@H](C)[C@H](O)[C@@H](O)[C@H]5O)[C@@H](O)[C@H](O)[C@H]4O)cc3o2)cc1O,96.4
18,O=c1c2cc(O)c(O)cc2oc2cc(O)c([C@@H]3O[C@H](CO)[C@@H](O)[C@H](O)[C@H]3O)c(O)c12,96.4
19,C=C1C[C@]23C[C@@]1(O)CC[C@H]2[C@@]12C=C[C@H](O)[C@@](C)(C(=O)O1)[C@H]2[C@@H]3C(=O)O,100
20,Cc1nnc(C(C)C)n1C1C[C@H]2CC[C@@H](C1)N2CC[C@H](NC(=O)C1CCC(F)(F)CC1)c1ccccc1 (stereo in doubt) [Maraviroc],96.2
21,CCC(CC)CC1(C(=O)Nc2ccccc2SC(=O)C(C)C)CCCCC1 [Dalcetrapib?JTT-705?],90.1
